Results are given in words; binding and its absence hold for the method and conditions named. Some entries that bind do so weakly or less than the wild type.
Columns and labels:
[1] = molecular target: PHF-tau (paired helical filament tau; sarcosyl insoluble prep from human AD brain) (human) (UniProt P10636); assay: western blot strips of a human AD brain derived PHF sample (1-well gel)
[2] = molecular target: mouse tau (non-aggregated tau in WT mouse brain sections) (mouse) (UniProt P10637); assay: immunohistochemistry on paraffin sections of WT mouse brain; no signal in Tau KO
[3] = molecular target: mouse tau (non-aggregated tau in WT mouse brain sections) (mouse) (UniProt P10637); assay: western blot of brain homogenate (20 µg total protein), antibody at 1 µg/mL
[4] = molecular target: PHF-tau (paired helical filament tau; sarcosyl insoluble prep from human AD brain) (human) (UniProt P10636); assay: western blot of a PHF prep from postmortem AD brain, antibody at 1 µg/mL
[5] = molecular target: soluble tau in human brain (non-AD and AD brain cryosections) (human) (UniProt P10636); assay: immunohistochemistry on cryosections of AD and non-AD brain
[6] = molecular target: PHF-tau (paired helical filament tau; sarcosyl insoluble prep from human AD brain) (human) (UniProt P10636); assay: immunohistochemistry on cryosections of AD brain (aggregated tau in situ)
[7] = molecular target: tau seeds from human AD brain (total homogenate of cryopreserved AD brain tissue) (human) (UniProt P10636); assay: immunodepletion of human AD brain homogenate with antibody and protein G beads; residual aggregates by hTau60/hTau60 MSD assay
[8] = molecular target: soluble tau in human brain (non-AD and AD brain cryosections) (human) (UniProt P10636); assay: western blot of human brain extract, antibody at 1 µg/mL
[9] = molecular target: PHF-tau (paired helical filament tau; sarcosyl insoluble prep from human AD brain) (human) (UniProt P10636); assay: direct ELISA, 25 ng/well coated PHF-tau, hybridoma screening

Protein sequences, listed by entry. Tags and fused reporters are not part of them. Lines headed by an entry give the natural chain unless they say otherwise; changes in a name come on top. Chains listed by the source or under a name are the forms on record and can include a tag or linker.
PHF-tau (paired helical filament tau; sarcosyl insoluble prep from human AD brain) (P10636, form named): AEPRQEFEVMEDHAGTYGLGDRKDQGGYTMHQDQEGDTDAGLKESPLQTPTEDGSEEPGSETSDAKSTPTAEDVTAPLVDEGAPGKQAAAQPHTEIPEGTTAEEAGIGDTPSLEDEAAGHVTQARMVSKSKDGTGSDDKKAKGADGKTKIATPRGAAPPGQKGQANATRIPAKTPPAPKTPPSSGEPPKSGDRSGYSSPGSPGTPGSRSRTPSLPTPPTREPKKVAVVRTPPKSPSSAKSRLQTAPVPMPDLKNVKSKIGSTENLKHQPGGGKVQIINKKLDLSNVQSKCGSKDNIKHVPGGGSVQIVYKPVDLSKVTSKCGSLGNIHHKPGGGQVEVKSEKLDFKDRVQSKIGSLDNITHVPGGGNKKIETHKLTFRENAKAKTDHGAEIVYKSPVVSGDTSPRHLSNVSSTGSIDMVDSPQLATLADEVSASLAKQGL
mouse tau (non-aggregated tau in WT mouse brain sections) (P10637, form named): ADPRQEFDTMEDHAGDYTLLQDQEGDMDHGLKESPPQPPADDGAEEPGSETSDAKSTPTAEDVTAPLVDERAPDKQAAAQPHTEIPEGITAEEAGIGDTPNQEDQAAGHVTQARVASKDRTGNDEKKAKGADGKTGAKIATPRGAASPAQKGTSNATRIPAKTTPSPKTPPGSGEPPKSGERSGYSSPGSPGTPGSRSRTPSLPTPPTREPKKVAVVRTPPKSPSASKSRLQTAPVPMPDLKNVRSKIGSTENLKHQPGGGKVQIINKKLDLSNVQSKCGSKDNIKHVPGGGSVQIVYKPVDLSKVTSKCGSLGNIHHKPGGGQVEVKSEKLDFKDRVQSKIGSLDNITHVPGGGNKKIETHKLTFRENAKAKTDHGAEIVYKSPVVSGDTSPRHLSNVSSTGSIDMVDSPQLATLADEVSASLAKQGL

| binding [1] | binding [2] | binding [3] | binding [4] | binding [5] | binding [6] | binding [7] | binding [8] | binding [9] | Binder |
| --- | --- | --- | --- | --- | --- | --- | --- | --- | --- |
| binds | binds | binds | binds | binds | binds | binds | binds | binds | PT66 monoclonal antibody (recombinant, mouse IgG2a/kappa) (antibody, V domains shown) VH: QVQLQQPGAELVKPGASVKMSCKASGYTFTSYWITWVKQRPGQGLEWIGDIHPGRGSTKSNEKFKSKATLTVDTSSSTAYMQFSSLTSEDSAVYYCARRWGFDYWGQGTTLTVSS VL: DIVITQDELSNPVTSGESVSISCRSSKSLLYKDGKTYLNWFLQRPGQSPQLLIYLMSTRASGVSDRFSGSGSGTDFTLEISRVKAEDVGVYYCQQLVDYPLTFGAGTKLELKR |
| – | – | – | – | – | – | – | – | binds | PT81 monoclonal antibody (recombinant, mouse IgG2a/kappa) (antibody, V domains shown) VH: QVQLQQPGAELVRPGASVILSCKASGYTFTNSWIHWVKQRPGRVLEWIGRIDPNSGGTRYNENFKSKATLTVDKPSSTAYMQLSSLTSEDSAVYFCSRGVLHDYWGQGTTLTVSS VL: DIVITQDELSNPVTSGESVSISCRSSKSLLYKDGKTYLNWFLQRPGQSPQLLIYLMSTRASGVSDRFSVSGSGTDFTLEISRVQAEDVGVYYCQQLVEYPYTFGGGTKLEIKR |
| – | – | – | – | – | – | – | – | binds | PT53 monoclonal antibody (recombinant, mouse IgG2a/kappa) (antibody, V domains shown) VH: EVKLMESGGGLVQPGASLRLSCAASGFTFTDYYMSWVRQPPGKAPEWLALIRNKANGYTTKYAASVKGRFTISRDNSQNILYLQMNTLRAEDSATYYCVKAVWFAYWGQGTLVTVSA VL: DIVITQDELSNPVTSGESVSISCRSSKSLLYKDGKTYLNWFLQRPGQSPQLLIYLMSTRASGVSDRFSGSGSGTDFTLEISRVKAEDVGVYYCLQLVEYPYTFGGGTKLEIKR |
| – | binds | binds | binds | binds | binds | binds | binds | binds | hTau60 monoclonal antibody (recombinant, mouse IgG2a/kappa) (antibody, V domains shown) VH: EVQLQQSGPELVKPGTSVKISCKVFGYTFTDYYMNWVKQSHGKSLEWIGDINPDNGETTYNQKFKGKATLTVDKSSSTAYMELRSLTSEDSAVYYCAKGATFVYWGQGTLVTVSA VL: DVVMTQTPLSLPVSLGDQASISCISSQSLVHSTGTTFLHWFLQKPGQSPKLLIYKVSNRFSGVPDRFSGSGSGTDFTLKISRVEAEDLGFYFCSQSTYFPLTFGSGTKLEIKR |
